Here are results for one molecule from patent publication US20030124132A1 (University of Texas, published 2003).

This test concerns the target T1, recombinant, depyrogenated truncated Tissue Factor (amino acids 1-219) of Example X (human), P13726.
T1 chain: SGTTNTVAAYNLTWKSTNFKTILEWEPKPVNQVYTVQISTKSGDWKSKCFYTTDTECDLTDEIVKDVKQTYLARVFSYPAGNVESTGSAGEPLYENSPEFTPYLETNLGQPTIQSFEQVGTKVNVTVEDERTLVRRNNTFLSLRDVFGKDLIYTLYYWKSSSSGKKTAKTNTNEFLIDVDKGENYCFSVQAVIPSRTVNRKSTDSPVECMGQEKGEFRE
The test can be described thus: SPR (Biacore, CM5 chip); tTF immobilized by amine coupling (700 RU) or captured by anti-human TF antibody (300 RU); tTF injected alone or after preincubation with LPS (10 µg/ml). The settings on record: remark: other sources report otherwise. In general terms: Surface plasmon resonance follows binding to a sensor surface in real time, without labels.

These are yes or no findings as the source states them, for the method shown.

B1: recombinant, depyrogenated truncated Tissue Factor (amino acids 1-219) of Example X (other, human, UniProt P13726 33-251, looked up)
chain: SGTTNTVAAYNLTWKSTNFKTILEWEPKPVNQVYTVQISTKSGDWKSKCFYTTDTECDLTDEIVKDVKQTYLARVFSYPAGNVESTGSAGEPLYENSPEFTPYLETNLGQPTIQSFEQVGTKVNVTVEDERTLVRRNNTFLSLRDVFGKDLIYTLYYWKSSSSGKKTAKTNTNEFLIDVDKGENYCFSVQAVIPSRTVNRKSTDSPVECMGQEKGEFRE
notes: also called tTF; endotoxin-free tTF
In the case of B1, the binding entry is on record as “no binding (tested: 30 µg/ml)”.
